Source: the supplement of paper PMC11006884
The entries are a selection whose mix differs from that of the whole data set. The data scatter; read single values as rough.

Chains of the proteins cited; added tags and fusions are not shown. Lines headed by an entry give the natural chain unless they say otherwise; changes in a name come on top.
UniProt Q15398: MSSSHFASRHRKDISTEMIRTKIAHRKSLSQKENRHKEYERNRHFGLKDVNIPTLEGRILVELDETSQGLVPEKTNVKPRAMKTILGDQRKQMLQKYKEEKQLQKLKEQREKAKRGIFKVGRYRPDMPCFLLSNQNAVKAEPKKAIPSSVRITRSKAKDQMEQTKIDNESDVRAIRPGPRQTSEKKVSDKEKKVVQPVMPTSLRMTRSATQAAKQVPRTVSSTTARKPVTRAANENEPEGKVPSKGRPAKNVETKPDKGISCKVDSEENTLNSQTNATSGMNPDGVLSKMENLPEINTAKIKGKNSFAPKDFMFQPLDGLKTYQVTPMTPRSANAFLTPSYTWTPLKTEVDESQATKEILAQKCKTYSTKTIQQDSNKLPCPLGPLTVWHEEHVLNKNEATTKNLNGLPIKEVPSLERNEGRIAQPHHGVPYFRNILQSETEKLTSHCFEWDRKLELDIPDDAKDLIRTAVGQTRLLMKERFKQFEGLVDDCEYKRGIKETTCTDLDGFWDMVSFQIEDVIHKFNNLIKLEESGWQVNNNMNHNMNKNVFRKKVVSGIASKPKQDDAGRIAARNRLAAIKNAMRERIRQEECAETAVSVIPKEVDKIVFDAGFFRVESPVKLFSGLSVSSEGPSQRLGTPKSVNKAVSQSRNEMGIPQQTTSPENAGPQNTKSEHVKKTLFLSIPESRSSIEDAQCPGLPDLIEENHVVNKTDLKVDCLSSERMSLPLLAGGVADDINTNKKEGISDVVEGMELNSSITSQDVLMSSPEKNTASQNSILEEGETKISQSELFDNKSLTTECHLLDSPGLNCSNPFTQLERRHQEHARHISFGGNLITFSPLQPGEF
UniProt Q15678: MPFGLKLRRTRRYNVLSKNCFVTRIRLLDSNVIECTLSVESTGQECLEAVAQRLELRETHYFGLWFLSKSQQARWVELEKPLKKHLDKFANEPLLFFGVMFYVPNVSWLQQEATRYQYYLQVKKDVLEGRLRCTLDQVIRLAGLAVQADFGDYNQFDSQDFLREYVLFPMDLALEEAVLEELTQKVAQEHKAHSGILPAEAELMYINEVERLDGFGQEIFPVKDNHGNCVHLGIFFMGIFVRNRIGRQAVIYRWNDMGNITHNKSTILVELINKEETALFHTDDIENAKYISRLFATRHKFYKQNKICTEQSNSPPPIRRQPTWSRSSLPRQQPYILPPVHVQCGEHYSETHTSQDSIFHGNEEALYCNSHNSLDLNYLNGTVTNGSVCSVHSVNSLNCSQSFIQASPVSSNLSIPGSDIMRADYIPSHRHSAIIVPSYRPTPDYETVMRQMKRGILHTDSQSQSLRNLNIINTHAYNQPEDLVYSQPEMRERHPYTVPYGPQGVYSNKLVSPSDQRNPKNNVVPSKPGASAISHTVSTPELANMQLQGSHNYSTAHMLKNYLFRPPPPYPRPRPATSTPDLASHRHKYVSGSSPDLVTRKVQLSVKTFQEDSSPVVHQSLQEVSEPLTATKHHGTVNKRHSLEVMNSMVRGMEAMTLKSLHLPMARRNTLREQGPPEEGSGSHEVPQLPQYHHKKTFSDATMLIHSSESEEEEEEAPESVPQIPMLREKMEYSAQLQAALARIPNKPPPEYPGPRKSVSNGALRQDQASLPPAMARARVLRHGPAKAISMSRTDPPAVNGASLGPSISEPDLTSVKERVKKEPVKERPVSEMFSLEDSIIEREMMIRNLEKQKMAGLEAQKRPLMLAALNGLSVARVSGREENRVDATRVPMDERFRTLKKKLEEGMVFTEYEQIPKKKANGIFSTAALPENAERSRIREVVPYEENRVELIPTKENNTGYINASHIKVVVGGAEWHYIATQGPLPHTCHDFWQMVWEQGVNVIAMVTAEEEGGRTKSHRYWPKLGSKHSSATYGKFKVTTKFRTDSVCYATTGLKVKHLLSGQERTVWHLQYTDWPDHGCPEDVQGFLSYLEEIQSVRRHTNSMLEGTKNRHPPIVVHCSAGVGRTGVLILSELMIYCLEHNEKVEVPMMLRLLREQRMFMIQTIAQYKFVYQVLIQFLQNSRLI
UniProt Q53EL6: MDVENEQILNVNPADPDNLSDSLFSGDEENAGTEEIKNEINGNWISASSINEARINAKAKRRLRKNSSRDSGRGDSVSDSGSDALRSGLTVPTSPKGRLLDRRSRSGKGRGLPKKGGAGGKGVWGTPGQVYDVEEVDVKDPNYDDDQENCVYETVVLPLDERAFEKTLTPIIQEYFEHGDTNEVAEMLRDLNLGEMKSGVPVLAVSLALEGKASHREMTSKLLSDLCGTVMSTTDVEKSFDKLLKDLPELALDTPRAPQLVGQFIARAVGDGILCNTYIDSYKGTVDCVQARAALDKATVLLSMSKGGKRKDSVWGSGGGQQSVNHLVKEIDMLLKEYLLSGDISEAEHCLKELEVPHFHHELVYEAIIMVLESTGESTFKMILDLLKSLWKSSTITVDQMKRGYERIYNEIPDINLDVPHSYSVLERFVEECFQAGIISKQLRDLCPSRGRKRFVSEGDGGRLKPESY
UniProt Q29RF7: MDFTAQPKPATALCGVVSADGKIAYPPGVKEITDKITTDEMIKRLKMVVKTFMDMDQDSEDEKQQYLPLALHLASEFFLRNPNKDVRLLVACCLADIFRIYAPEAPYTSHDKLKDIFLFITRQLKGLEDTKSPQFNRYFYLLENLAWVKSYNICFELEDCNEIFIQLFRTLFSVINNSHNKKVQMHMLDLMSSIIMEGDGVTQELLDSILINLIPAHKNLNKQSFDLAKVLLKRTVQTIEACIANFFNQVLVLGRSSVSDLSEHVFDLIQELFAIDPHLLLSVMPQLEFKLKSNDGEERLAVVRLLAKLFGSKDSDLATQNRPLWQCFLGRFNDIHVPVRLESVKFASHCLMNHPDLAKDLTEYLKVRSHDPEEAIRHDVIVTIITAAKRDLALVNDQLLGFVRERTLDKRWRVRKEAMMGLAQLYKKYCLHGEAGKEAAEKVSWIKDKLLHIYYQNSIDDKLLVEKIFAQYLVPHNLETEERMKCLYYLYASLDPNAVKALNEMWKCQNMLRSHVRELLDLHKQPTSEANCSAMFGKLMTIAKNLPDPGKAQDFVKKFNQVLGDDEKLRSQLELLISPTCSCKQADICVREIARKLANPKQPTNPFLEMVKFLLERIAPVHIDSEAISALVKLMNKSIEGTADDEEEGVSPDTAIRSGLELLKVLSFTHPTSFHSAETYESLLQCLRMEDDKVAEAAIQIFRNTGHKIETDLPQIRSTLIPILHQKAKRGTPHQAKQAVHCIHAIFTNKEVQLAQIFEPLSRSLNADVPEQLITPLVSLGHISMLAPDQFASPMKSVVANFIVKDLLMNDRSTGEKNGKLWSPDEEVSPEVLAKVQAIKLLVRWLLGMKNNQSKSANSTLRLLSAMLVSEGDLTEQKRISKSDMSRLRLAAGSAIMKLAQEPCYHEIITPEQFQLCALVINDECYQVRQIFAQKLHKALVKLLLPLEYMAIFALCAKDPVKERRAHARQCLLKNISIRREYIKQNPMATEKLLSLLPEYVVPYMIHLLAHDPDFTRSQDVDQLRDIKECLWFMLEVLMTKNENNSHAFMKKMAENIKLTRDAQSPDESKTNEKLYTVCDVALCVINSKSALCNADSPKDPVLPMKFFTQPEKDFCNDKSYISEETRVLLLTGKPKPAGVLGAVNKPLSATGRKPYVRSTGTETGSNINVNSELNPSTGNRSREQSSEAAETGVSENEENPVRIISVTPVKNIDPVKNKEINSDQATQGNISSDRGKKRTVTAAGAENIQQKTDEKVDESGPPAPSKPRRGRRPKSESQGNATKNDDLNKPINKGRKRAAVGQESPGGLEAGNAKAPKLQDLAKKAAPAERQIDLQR
UniProt Q16611: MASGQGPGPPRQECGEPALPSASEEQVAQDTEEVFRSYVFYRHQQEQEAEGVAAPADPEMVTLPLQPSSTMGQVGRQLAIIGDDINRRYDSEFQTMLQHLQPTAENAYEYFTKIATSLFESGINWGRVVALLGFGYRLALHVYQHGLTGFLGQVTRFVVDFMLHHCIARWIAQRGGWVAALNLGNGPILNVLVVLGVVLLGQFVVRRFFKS
UniProt Q15386: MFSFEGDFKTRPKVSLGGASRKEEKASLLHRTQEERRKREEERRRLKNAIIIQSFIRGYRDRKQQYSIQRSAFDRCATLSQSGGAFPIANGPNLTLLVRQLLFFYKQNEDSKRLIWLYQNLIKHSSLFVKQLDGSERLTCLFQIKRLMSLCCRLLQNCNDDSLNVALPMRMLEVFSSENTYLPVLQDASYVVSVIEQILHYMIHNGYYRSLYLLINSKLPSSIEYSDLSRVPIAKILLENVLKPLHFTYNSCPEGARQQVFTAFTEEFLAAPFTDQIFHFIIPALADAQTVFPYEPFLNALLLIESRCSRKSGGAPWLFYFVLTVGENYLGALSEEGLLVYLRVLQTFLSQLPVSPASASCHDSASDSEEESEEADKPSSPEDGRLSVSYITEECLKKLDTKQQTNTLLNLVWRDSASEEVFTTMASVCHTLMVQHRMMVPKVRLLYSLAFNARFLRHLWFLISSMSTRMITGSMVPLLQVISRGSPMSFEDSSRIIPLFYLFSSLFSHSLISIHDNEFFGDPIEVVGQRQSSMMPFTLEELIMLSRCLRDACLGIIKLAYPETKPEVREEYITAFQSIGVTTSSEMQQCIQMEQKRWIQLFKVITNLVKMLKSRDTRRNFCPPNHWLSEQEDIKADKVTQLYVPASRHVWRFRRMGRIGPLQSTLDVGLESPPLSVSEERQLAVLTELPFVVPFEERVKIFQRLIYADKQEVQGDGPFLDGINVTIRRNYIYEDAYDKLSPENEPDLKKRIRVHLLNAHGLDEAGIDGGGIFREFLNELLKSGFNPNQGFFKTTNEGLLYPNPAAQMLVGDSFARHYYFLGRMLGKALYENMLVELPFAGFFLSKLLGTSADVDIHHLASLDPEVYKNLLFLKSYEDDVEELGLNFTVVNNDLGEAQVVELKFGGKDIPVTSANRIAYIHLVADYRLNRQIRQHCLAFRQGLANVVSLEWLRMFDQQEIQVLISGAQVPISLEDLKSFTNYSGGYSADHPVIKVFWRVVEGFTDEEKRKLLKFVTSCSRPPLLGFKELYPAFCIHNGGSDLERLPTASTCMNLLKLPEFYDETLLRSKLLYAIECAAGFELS
UniProt Q15738: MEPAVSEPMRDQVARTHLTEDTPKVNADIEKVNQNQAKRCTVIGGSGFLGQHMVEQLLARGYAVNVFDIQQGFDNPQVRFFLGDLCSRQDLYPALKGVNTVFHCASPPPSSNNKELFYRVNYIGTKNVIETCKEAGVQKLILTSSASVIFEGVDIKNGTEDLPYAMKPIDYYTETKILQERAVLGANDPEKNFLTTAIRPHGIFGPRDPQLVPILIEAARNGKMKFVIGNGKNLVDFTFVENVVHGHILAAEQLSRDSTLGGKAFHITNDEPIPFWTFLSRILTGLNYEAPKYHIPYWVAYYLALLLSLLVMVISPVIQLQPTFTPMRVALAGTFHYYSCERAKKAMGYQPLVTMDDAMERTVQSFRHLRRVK
UniProt Q15631: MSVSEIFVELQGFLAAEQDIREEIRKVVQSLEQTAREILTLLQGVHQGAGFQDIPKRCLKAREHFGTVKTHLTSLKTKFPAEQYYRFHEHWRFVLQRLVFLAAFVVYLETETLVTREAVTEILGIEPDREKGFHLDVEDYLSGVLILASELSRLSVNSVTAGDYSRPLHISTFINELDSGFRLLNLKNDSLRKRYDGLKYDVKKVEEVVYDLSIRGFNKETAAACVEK
UniProt Q15427: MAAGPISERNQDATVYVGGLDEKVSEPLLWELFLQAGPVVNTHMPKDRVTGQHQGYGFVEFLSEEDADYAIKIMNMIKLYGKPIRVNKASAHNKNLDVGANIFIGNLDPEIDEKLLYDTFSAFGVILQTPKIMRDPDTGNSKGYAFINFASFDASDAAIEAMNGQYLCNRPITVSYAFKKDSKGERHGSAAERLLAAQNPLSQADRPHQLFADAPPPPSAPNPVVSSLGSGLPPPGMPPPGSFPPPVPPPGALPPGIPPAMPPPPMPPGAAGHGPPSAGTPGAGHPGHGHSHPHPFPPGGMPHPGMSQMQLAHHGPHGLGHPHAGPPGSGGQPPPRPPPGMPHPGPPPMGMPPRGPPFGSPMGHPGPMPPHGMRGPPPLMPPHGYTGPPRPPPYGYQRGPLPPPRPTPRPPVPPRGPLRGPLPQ
UniProt Q15599: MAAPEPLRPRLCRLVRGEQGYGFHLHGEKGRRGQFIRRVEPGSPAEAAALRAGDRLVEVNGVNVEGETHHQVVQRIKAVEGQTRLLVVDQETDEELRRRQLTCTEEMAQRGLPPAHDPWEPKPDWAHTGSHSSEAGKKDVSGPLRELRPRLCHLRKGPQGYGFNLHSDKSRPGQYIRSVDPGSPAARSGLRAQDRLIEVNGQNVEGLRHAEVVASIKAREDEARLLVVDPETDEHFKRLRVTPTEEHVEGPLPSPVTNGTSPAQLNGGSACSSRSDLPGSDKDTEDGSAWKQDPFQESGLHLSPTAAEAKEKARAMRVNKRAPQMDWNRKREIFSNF

These targets were tested with COC(=O)/C=C/c1ccccc1 [methyl cinnamate] (assay: log2 ratio of iodoacetamide-alkyne labeling of the cysteine site, DMSO over compound (competition); higher = stronger covalent engagement of the cysteine by the compound, active = 1 or more). Settings: 500 µM; treatment time 1 h; system: HEK293T cell lysate.
In short: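 After 1 h at ambient temperature with vehicle or electrophile (500 µM), HEK293T lysate (2 mg/mL) was labelled for 1 h with iodoacetamide alkyne and clicked to sCIP-TMT reagents. Pooled samples were trypsin-digested overnight at 37 °C, streptavidin-enriched, acid-eluted and analysed by Orbitrap Eclipse LC-MS/MS with FAIMS, then quantified in FragPipe over three replicates with duplicate channels. A cysteine's log2 competition ratio is its mean control-channel over mean compound-channel reporter intensity. Cysteines quantified in only one replicate were not included.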

log2 ratio of iodoacetamide-alkyne labeling, inactive:
INF2 C1029 (UniProt Q27J81) 0.27, PON2 C283 (UniProt Q15165) -0.274, PDIA6 C55 (UniProt Q15084) 0.00454, DLGAP5 C448 (UniProt Q15398) -0.21, NONO C208 (UniProt Q15233) -0.0736, SETDB1 C987 (UniProt Q15047) -0.131, PTPN14 C1082 (UniProt Q15678) -0.00302, PDIA6 C193 (UniProt Q15084) -0.0138, LLGL1 C636 (UniProt Q15334) 0.322, PDCD4 C227 (UniProt Q53EL6) 0.0405, SF1 C282 (UniProt Q15637) 0.165, PDS5A C1116 (UniProt Q29RF7) 0.18, BAK1 C14 (UniProt Q16611) 0.287, NONO C145 (UniProt Q15233) 0.0848, UBE3C C622 (UniProt Q15386) 0.174, TXNRD1 C209 (UniProt Q16881) -0.242, NSDHL C86 (UniProt Q15738) -0.0217, UniProt Q15631_C225 0.276, SEC23B C180 (UniProt Q15437) 0.247, ETFDH C118 (UniProt Q16134) 0.437, LRRC14 C221 (UniProt Q15048) 0.131, NDUFA5 C17 (UniProt Q16718) 0.301, ANKRD39 C173 (UniProt Q53RE8) 0.0271, PDS5A C327 (UniProt Q29RF7) 0.184, MAP7D1 C328 (UniProt Q3KQU3) 0.141, TSR1 C126 (UniProt Q2NL82) 0.0706, ERCC6L C356 (UniProt Q2NKX8) 0.199, UniProt Q15365_C158 0.396, UniProt Q16637_C60 0.438, TRIP6 C402 (UniProt Q15654) 0.115, PPA1 C274 (UniProt Q15181) 0.152, EFTUD2 C148 (UniProt Q15029) 0.0118, PDS5A C92 (UniProt Q29RF7) -0.079, RABEP1 C350 (UniProt Q15276) 0.114, UniProt Q15365_C293 0.0149, SF3B4 C168 (UniProt Q15427) 0.00642, SLC9A3R2 C271 (UniProt Q15599) 0.196
